Library screen at single concentrations

The chains behind the UniProt entries cited, without tags or fusion partners. Residues count along the entry.
UniProt Q8IDJ8, 1-583: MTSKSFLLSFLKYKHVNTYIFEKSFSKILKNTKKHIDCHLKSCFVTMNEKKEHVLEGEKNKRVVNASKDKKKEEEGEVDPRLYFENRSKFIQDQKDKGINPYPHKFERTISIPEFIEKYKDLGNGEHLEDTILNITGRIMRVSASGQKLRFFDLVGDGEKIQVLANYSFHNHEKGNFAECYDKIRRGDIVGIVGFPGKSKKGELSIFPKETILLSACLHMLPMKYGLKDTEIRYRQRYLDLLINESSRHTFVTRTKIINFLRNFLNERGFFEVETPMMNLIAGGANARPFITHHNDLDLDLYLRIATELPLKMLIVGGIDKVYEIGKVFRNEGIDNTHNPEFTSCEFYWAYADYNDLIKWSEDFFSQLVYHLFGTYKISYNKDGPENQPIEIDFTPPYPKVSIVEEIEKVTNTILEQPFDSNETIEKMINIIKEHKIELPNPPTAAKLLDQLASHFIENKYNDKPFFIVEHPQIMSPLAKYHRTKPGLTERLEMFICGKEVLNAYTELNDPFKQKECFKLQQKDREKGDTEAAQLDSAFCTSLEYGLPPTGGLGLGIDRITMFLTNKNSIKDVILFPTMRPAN
UniProt P9WFT3, whole entry: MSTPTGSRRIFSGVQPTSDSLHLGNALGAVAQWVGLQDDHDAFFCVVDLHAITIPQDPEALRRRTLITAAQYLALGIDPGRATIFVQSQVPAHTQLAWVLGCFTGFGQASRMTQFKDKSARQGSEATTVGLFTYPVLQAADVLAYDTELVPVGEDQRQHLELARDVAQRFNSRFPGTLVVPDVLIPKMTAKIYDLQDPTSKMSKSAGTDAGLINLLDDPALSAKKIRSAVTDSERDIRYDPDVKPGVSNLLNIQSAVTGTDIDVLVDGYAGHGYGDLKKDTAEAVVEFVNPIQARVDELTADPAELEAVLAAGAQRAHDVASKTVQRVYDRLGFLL

Measurements from “University of Dundee, Small-Polar-MMV Screening Library” (2021), ChEMBL document CHEMBL3988442.

PfKRS1: 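Lysine-tRNA ligase, Plasmodium falciparum 3D7 (UniProt Q8IDJ8). Enzyme assay of the cytosolic lysyl-tRNA synthetase in 384-well plates, read by luminescence. Tested at 30 µM. Higher reads as stronger inhibition, judged from the few compounds that gave an IC50. Size under these conditions: about 69,000 compounds, about 49 of them at 50% or above in at least one test.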
MtTrpRS: 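Tryptophan-tRNA ligase, Mycobacterium tuberculosis (UniProt P9WFT3). Enzyme assay of tryptophanyl-tRNA synthetase; the read-out is not stated. Tested at 10 µM. Higher most likely means stronger inhibition; the record gives no direction and few retests gave an IC50. Of about 65,000 compounds tested this way, about 64 (0.098%) reached 50% or more in at least one test.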
Leishmania in macrophages: 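Cell assay of Leishmania donovani living inside macrophages; the read-out is not stated. Compounds at 30 µM. The record gives no direction; compounds that gave an IC50 in retests scored well above the rest, so higher reads as stronger inhibition. Of about 69,000 compounds tested this way, about 1,000 (1.5%) reached 50% or more in at least one test.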

Results are given as percent effect. The record does not define 0% and 100%; most values in the screen are far below 50% and negative numbers occur (in some assays of this library far below -100). Compounds were drawn at random from those tested, without regard to their results. A dash means the value is not listed here; it may have been measured.

| structure | PfKRS1 | MtTrpRS | Leishmania in macrophages |
|---|---|---|---|
| `O=C(CCCc1ccccn1)N1CCOc2ccc(F)cc21` | -2.061 | 1.122 | -3.353 |
| `O=C(Nc1ccc(F)cc1F)N(CCC(F)(F)F)C[C@H](O)CO` | 3.005 | -4.237 | 5.849 |
| `Cc1ccc(N2CCCC(c3[nH]ncc3-c3ccccc3)C2)nn1` (centres undefined) | 2.128 | -10.61 | -14.3 |
| `COc1ccc(CNC(=O)N(Cc2ccc(F)cc2F)C2CC2)cn1` | 7.668 | 2.911 | 9.734 |
| `N[C@@H]1CC[C@H](C(=O)NCCn2cc(Cl)cn2)C1` | 1.281 | -12.43 | -14.66 |
| `Cc1nc[nH]c1CN(Cc1ccccc1F)C1CC(C)(C)NC(C)(C)C1.O=C(O)CC(O)(CC(=O)O)C(=O)O` | - | - | 53.75 |
| `O=C(c1ccco1)N1CCO[C@@H]2CN(c3ncc(F)cn3)CC[C@@H]2C1` | -3.84 | -4.863 | - |
| `O=C(O)CCNC(=O)Cc1csc(-c2cccc(Cl)c2)n1` | 9.477 | -1.469 | 16.87 |
| `CCC1=NC(SCC(=O)c2ccccc2)c2cc(CC)sc2N1` (centres undefined) | 0.193 | -0.1295 | -56.39 |
| `Cc1nc(N2CCOCC2)nc2c1CCN(Cc1cccnc1)CC2.O=C(O)C(F)(F)F` | - | - | -2.721 |
| `O=C(O)C(F)(F)F.O=C(O)C(F)(F)F.O=C(O)C(F)(F)F.[H][C@@]12CN(Cc3ccc(F)cc3)C[C@]1([H])OCCN2CCN1CCCC1` | - | - | 34.72 |
| `CCCc1n[nH]c(C2CN(C(=O)c3ccco3)CCO2)n1` (centres undefined) | 4.452 | -4.776 | 22.5 |
| `CCC(C)N(Cc1sccc1C)C(=O)c1ccc2cccnc2n1` (centres undefined) | 4.145 | -3.602 | 31.81 |
| `[H][C@@]12CCN(C(=O)c3cccs3)CC[C@@]1([H])N(S(C)(=O)=O)CCO2` | - | - | 25.93 |
| `CCC1CN(C(=O)Cc2coc(-c3ccccc3)n2)CCO1` (centres undefined) | 2.011 | -1.861 | -9.446 |
| `COCc1nn(C(C)C)c2c1CCN(Cc1ccc(C)o1)C2` | 3.459 | -0.1501 | - |
| `CCOCCCNC(=O)c1ccccc1S(C)(=O)=O` | -4.933 | -4.343 | 37.29 |
| `Cc1noc(C)c1C(=O)N1C[C@H]2CCC[C@@]2(COc2ccccn2)C1` | 4.251 | -2.397 | - |
| `COc1cc(N2CCC3(CC2)CC(N2CCN(C)CC2)CO3)ncn1` (centres undefined) | 0.2524 | -3.153 | - |
| `Cn1cc(C(=O)N2CCC(c3ncc[nH]3)CC2)cn1` | 7.498 | -7.204 | 19.38 |
| `c1cc(-c2ccc3c(c2)CCC32CCNCC2)ccn1` | 3.206 | 9.385 | 28.91 |
| `O=c1[nH][nH]cc1-c1ccnc(NCCN2CCCC2)n1` | -6.831 | -4.814 | 4.44 |
| `CCN(Cc1cc(F)c(OC)c(Cl)c1)Cc1nc(COC)no1` | 4.332 | 2.205 | 17.61 |
| `Fc1cc(CNCCn2cccn2)ccc1-n1cncn1` | 7.71 | 4.283 | 4.518 |
| `Cc1cnn(CC2CN(CC(=O)Nc3cc(C)no3)CCO2)c1` (centres undefined) | 2.015 | -3.016 | 0.3058 |
| `O=C1NCC[C@]12CN(CC1CCOCC1)C[C@H]2c1ccccc1` | 3.618 | - | - |
| `COc1ccccc1NC(=O)C1(c2ccccc2)CCOCC1` | 3.501 | -1.97 | 17.99 |
| `[H][C@]12CC[C@](O)(CC1)C(CN1CCOCC1)N2C(=O)N1CCOCC1` (some centres undefined) | - | - | 15.76 |
| `Cc1ccc(NC(=O)Nc2cnc(N3CCN(C)CC3)nc2)c(Cl)c1` | 0.8797 | 2.977 | 19.4 |
| `CC(C)Oc1cccc(CC(=O)N(CC(N)=O)C2CCCC2)c1` | 7.064 | -2.801 | -11.6 |
| `O=C(NCC1CC1)C1CN(C(=O)Nc2ccccc2)CC12CCOCC2` (centres undefined) | 4.797 | -2.521 | 30.96 |
| `CN1C(=O)CC(C(=O)O)C12CCN(Cc1ccc(Cl)c(F)c1)CC2` (centres undefined) | -0.4658 | 54.65 | -7.091 |
| `CN(Cc1ccco1)C1COC2(CCN(Cc3nccs3)CC2)C1.O=C(O)C(F)(F)F.O=C(O)C(F)(F)F` (centres undefined) | - | - | -15.3 |
| `CN(Cc1ccco1)[C@@H]1CN(C(=O)C2CCOCC2)C[C@@H]2CCCO[C@@H]21` | 3.978 | -0.6006 | - |
| `COc1ccc(C)cc1CN1CCCC1c1noc(C2CC2)n1` (centres undefined) | 1.021 | -2.235 | 48.69 |
| `Cc1cccc(NS(=O)(=O)c2cc(C(=O)O)oc2C)c1` | -1.443 | -4.68 | 8.685 |
| `CC(C)Oc1ccc(CNC(=O)c2cc(C(N)=O)cs2)cc1F` | -0.4224 | 4.954 | 5.955 |
| `O=S(=O)(NCCn1ccc(-c2ccccn2)n1)C1CCCCC1` | 3.864 | 16.45 | 8.188 |
| `Cc1cnn(C2CN(Cc3nc(-c4ccccn4)no3)C2)c1` | -2.351 | 5.745 | -31.22 |
| `c1ccc(Cc2noc(CN3CCCC3Cn3cccn3)n2)cc1` (centres undefined) | 0.5726 | -6.913 | -7.749 |
| `c1ncn(Cc2ccc(CNCc3ccc4c(c3)OCCO4)cc2)n1` | -0.9057 | -0.1608 | 12.5 |
| `COC1CN(C(=O)CC(C)C)CCC(=O)N(C)c2ccccc21` (centres undefined) | 2.674 | - | -1.764 |

Repeated from the top, 5 entries:

{"structure": "O=C(CCCc1ccccn1)N1CCOc2ccc(F)cc21", "PfKRS1": -2.061, "MtTrpRS": 1.122, "Leishmania in macrophages": -3.353}
{"structure": "O=C(Nc1ccc(F)cc1F)N(CCC(F)(F)F)C[C@H](O)CO", "PfKRS1": 3.005, "MtTrpRS": -4.237, "Leishmania in macrophages": 5.849}
{"structure": "Cc1ccc(N2CCCC(c3[nH]ncc3-c3ccccc3)C2)nn1", "stereo": "centres undefined", "PfKRS1": 2.128, "MtTrpRS": -10.61, "Leishmania in macrophages": -14.3}
{"structure": "COc1ccc(CNC(=O)N(Cc2ccc(F)cc2F)C2CC2)cn1", "PfKRS1": 7.668, "MtTrpRS": 2.911, "Leishmania in macrophages": 9.734}
{"structure": "N[C@@H]1CC[C@H](C(=O)NCCn2cc(Cl)cn2)C1", "PfKRS1": 1.281, "MtTrpRS": -12.43, "Leishmania in macrophages": -14.66}